Measurements taken from patent US20050106639A1, “Method for quantification of AKT protein expression” (Ventana Medical Systems, Inc., priority 2000, published 2005).
At least one structure is not confirmed: it was looked up by name or label, or the drawing left a doubt.

How the values were obtained:
MCF7 cells = assay: Apoptosis/survival under hypoxic conditions, MCF7 cells; format: cell-based; conditions: 50 pM inhibitor, 7-48 hours after plating, for 1-3 days
MCF7/HER-2/neu cells = assay: Apoptosis/survival under hypoxic conditions, MCF7/HER-2/neu cells; format: cell-based; conditions: 50 pM inhibitor, 7-48 hours after plating, for 1-3 days

With `COC[C@H]1OC(=O)c2coc3c2[C@@]1(C)C1=C(C3=O)[C@@H]2CCC(=O)[C@@]2(C)C[C@H]1OC(C)=O` [Wortmannin] the “effect on the survival of MCF7 cells under hypoxia” value (MCF7 cells) was “only a marginal effect” and the “viability of MCF7/HER-2/neu cells under hypoxia” value (MCF7/HER-2/neu cells) was “greatly reduced”.
